Measured values from publication PMC12860897.
These are yes or no findings as the source states them, for the method shown. In cells and extracts the contact can be indirect. These calls come from enrichment with a bait or labelling near it, and not all partners need be listed.

Sequences of proteins named here, by UniProt entry; tags and fusion partners are left off.
UniProt P19785: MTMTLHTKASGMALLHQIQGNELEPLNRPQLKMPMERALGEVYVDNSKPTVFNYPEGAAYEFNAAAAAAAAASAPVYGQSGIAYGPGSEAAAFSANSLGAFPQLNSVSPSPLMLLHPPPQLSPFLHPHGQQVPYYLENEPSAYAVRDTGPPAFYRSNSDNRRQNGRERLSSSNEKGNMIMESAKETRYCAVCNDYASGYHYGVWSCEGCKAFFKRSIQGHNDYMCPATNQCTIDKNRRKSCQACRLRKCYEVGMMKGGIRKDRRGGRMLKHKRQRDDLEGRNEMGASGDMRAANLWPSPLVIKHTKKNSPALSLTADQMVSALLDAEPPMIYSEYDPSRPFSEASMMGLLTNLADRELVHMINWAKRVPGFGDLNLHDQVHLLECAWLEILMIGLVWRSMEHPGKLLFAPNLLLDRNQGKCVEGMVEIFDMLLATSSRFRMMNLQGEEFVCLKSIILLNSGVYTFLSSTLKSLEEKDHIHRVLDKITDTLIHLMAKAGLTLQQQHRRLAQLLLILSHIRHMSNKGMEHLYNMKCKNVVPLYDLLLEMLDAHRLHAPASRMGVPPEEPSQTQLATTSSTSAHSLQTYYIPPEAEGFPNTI

Target: Estrogen receptor (ER) α, endogenous in mouse CD11b+ bone marrow cells (mouse (endogenous in CD11b+ BMCs)) (UniProt P19785)
Test: affinity purification with mass spectrometry; immunoprecipitation with an ERα antibody from CD11b+ BMCs of sham and OVX mice (6 weeks after OVX); SDS gel bands digested with trypsin, LC-MS/MS (LTQ-Orbitrap Velos), Mascot

B1: 17β-hydroxysteroid dehydrogenase type 7 (HSD17B7), endogenous in mouse CD11b+ bone marrow cells (enzyme, UniProt O88736 1-334)
chain: MRKVVLITGASSGIGLALCGRLLAEDDDLHLCLACRNLSKARAVRDTLLASHPSAEVSIVQMDVSSLQSVVRGAEEVKQKFQRLDYLYLNAGILPNPQFNLKAFFCGIFSRNVIHMFTTAEGILTQNDSVTADGLQEVFETNLFGHFILIRELEPLLCHADNPSQLIWTSSRNAKKANFSLEDIQHSKGPEPYSSSKYATDLLNVALNRNFNQKGLYSSVMCPGVVMTNMTYGILPPFIWTLLLPIMWLLRFFVNALTVTPYNGAEALVWLFHQKPESLNPLTKYASATSGFGTNYVTGQKMDIDEDTAEKFYEVLLELEKRVRTTVQKSDHPS
In the case of B1, the binding is reported as “binds”.
